Some of the results follow. Repeats are few or missing, and single values can be far off.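 Cells were imaged in 1,536-well plates, and nuclei stained with an antibody against cleaved PARP were counted against all DNA-stained nuclei to give the apoptosis fraction. Screening doses were chosen to leave most cells alive, and resting and induced cleaved-PARP levels differ strongly between cell lines.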
Experiments:
Experiment in all cases: cleaved PARP positive nuclei fraction relative to DMSO control; melanoma cells; higher = more apoptosis
Conditions in all cases: library dose: low library concentration; 72 h
[1] = system: 501Mel
[2] = system: A101D
[3] = system: A2058
[4] = system: A375
[5] = system: C32
[6] = system: CBRC008 (line from a melanoma biopsy)
[7] = system: CBRC014 (line from a melanoma biopsy)
[8] = system: CBRC016 (line from a melanoma biopsy)
[9] = system: CBRC017 (line from a melanoma biopsy)
[10] = system: CBRC034 (line from a melanoma biopsy)
[11] = system: COLO792
[12] = system: COLO800
[13] = system: COLO829
[14] = system: G361
[15] = system: IPC-298
[16] = system: IST-MEL1
[17] = system: LB2518-MEL
[18] = system: LOXIMVI
[19] = system: MEL-HO

Compound	cleaved PARP positive nuclei fraction [1]	cleaved PARP positive nuclei fraction [2]	cleaved PARP positive nuclei fraction [3]	cleaved PARP positive nuclei fraction [4]	cleaved PARP positive nuclei fraction [5]	cleaved PARP positive nuclei fraction [6]	cleaved PARP positive nuclei fraction [7]	cleaved PARP positive nuclei fraction [8]	cleaved PARP positive nuclei fraction [9]	cleaved PARP positive nuclei fraction [10]	cleaved PARP positive nuclei fraction [11]	cleaved PARP positive nuclei fraction [12]	cleaved PARP positive nuclei fraction [13]	cleaved PARP positive nuclei fraction [14]	cleaved PARP positive nuclei fraction [15]	cleaved PARP positive nuclei fraction [16]	cleaved PARP positive nuclei fraction [17]	cleaved PARP positive nuclei fraction [18]	cleaved PARP positive nuclei fraction [19]
Cc1cc(Nc2cc(N3CCN(C)CC3)nc(/C=C/c3ccccc3)n2)n[nH]1 + CCCS(=O)(=O)Nc1ccc(F)c(C(=O)c2c[nH]c3ncc(Cl)cc23)c1F [PLX4720] (first compound 0.04 µM, partner dose 0.08 µM)	73.1%	50.2%	98.4%	131%	84.7%	112%	89.1%	127%	104%	62.9%	124%	94.4%	77.6%	130%	47.5%	272%	113%	196%	164%
C=C(c1ccc(C(=O)O)cc1)c1cc2c(cc1C)C(C)(C)CCC2(C)C [Bexarotene] + C[C@]1(c2nc3c(C(N)=O)cccc3[nH]2)CCCN1 [Veliparib] (first compound 2 µM, partner dose 1.4 µM)	109%	91.3%	140%	360%	76.1%	118%	112%	314%	141%	73.7%	79.8%	48.7%	134%	71%	139%	204%	145%	53.1%	35.3%
CCCS(=O)(=O)Nc1ccc(F)c(C(=O)c2c[nH]c3ncc(Cl)cc23)c1F + C#Cc1cccc(Nc2ncnc3cc(OCCOC)c(OCCOC)cc23)c1 [erlotinib] (first compound 0.08 µM, partner dose 0.8 µM)	58.7%	159%	141%	205%	70.6%	37.1%	101%	40.7%	88.6%	70.7%	101%	134%	84.4%	157%	94.2%	108%	100%	50.4%	148%
Nc1nc(F)nc2c1ncn2[C@@H]1O[C@H](CO)[C@@H](O)[C@@H]1O [fludarabine] + C[C@]1(c2nc3c(C(N)=O)cccc3[nH]2)CCCN1 [Veliparib] (first compound 0.2 µM, partner dose 1.4 µM)	3200%	47.3%	122%	3710%	78.9%	71.3%	93%	28.8%	80.8%	49.7%	143%	57%	102%	94.5%	90.4%	62.9%	94.2%	52.5%	13.6%
O=C(O)c1ccc2c(c1)nc(Nc1cccc(Cl)c1)c1ccncc12 + Clc1ccc(Nc2nnc(Cc3ccncc3)c3ccccc23)cc1 [vatalanib] (first compound 0.4 µM, partner dose 2 µM)	98.3%	41.4%	185%	164%	77.1%	147%	128%	100%	150%	155%	182%	57.2%	251%	18.2%	133%	94.4%	97.6%	156%	94%
Nc1nc(F)nc2c1ncn2[C@@H]1O[C@H](CO)[C@@H](O)[C@@H]1O [fludarabine] + C#Cc1cccc(Nc2ncnc3cc(OCCOC)c(OCCOC)cc23)c1 [erlotinib] (first compound 0.2 µM, partner dose 0.8 µM)	15300%	100%	173%	3040%	150%	105%	104%	385%	109%	84.6%	188%	84%	136%	76.4%	221%	155%	105%	45.9%	272%
CO[C@H]1C[C@@H]2CC[C@@H](C)[C@@](O)(O2)C(=O)C(=O)N2CCCC[C@H]2C(=O)O[C@H]([C@H](C)C[C@@H]2CC[C@@H](OCCO)[C@H](OC)C2)CC(=O)[C@H](C)/C=C(\C)[C@@H](O)[C@@H](OC)C(=O)[C@H](C)C[C@H](C)/C=C/C=C/C=C/1C [everolimus] + CC(=O)c1c(C)c2cnc(Nc3ccc(N4CCNCC4)cn3)nc2n(C2CCCC2)c1=O [palbociclib] (first compound 0.02 µM, partner dose 0.04 µM)	194%	245%	65.2%	1070%	80.3%	32.1%	104%	92.5%	118%	39.3%	238%	137%	174%	244%	24.8%	173%	73.7%	192%	89.5%
CO[C@H]1C[C@@H]2CC[C@@H](C)[C@@](O)(O2)C(=O)C(=O)N2CCCC[C@H]2C(=O)O[C@H]([C@H](C)C[C@@H]2CC[C@@H](OCCO)[C@H](OC)C2)CC(=O)[C@H](C)/C=C(\C)[C@@H](O)[C@@H](OC)C(=O)[C@H](C)C[C@H](C)/C=C/C=C/C=C/1C [everolimus] + Nc1nc(F)nc2c1ncn2[C@@H]1O[C@H](CO)[C@@H](O)[C@@H]1O [fludarabine] (first compound 0.02 µM, partner dose 0.2 µM)	5660%	133%	98.9%	5490%	50.6%	127%	100%	158%	244%	40.6%	169%	141%	106%	288%	66.7%	178%	133%	21.8%	183%

— the supplement of paper PMC4604168 (melanoma cell lines)
